This test concerns the target RB1-inducible coiled-coil 1 (RB1CC1), endogenous in MCF-7 cells (human (endogenous in MCF-7)) (UniProt Q8TDY2). The test is described as follows: affinity purification with mass spectrometry; MCF-7 lysate in EBC lysis buffer, immunoprecipitated with anti-RB1CC1 purified IgG at 4°C overnight, protein G-agarose, washed with NETN; SDS-PAGE, silver staining, band identified by LC-MS/MS.

By UniProt entry, the sequences of proteins in these tests, tags left out.
UniProt Q8TDY2: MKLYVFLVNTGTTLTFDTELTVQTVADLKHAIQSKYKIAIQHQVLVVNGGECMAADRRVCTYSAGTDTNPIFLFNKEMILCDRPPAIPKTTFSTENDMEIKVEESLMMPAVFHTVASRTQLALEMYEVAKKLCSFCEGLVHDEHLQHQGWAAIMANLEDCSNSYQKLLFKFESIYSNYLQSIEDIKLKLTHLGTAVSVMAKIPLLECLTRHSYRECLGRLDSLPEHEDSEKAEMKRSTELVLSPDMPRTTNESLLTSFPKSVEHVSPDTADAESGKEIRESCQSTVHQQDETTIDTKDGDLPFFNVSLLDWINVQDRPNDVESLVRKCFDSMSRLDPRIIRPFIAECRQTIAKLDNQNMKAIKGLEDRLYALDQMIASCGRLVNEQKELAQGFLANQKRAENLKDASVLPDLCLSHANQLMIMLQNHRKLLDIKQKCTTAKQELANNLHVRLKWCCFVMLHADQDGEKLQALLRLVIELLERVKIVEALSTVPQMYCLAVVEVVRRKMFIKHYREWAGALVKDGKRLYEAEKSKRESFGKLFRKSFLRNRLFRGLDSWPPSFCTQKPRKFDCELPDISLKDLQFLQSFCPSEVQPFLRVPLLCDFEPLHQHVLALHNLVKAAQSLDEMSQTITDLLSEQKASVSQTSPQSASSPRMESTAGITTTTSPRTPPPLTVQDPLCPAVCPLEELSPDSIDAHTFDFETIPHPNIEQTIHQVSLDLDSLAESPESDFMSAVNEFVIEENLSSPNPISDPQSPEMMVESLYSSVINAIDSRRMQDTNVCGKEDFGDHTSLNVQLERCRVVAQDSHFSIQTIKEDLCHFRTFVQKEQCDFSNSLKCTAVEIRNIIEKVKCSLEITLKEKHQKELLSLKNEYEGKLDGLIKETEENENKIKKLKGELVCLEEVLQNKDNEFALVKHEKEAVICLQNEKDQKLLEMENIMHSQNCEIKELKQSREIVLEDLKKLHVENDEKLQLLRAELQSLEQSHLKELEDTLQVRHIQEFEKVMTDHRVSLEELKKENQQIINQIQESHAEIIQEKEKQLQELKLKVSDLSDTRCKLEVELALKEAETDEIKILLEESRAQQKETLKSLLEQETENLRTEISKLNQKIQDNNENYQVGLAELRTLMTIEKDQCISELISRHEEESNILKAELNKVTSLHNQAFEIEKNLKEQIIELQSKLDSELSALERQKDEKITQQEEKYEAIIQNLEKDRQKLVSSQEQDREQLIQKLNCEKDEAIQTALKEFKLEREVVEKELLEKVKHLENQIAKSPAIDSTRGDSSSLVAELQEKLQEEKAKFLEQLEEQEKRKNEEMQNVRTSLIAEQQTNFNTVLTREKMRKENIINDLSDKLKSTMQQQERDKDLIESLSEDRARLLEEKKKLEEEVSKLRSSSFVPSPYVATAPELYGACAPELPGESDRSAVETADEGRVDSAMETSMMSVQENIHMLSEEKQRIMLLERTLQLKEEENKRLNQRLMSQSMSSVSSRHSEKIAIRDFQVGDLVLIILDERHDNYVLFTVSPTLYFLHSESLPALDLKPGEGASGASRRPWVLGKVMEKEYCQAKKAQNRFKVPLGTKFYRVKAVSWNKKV
UniProt Q12824: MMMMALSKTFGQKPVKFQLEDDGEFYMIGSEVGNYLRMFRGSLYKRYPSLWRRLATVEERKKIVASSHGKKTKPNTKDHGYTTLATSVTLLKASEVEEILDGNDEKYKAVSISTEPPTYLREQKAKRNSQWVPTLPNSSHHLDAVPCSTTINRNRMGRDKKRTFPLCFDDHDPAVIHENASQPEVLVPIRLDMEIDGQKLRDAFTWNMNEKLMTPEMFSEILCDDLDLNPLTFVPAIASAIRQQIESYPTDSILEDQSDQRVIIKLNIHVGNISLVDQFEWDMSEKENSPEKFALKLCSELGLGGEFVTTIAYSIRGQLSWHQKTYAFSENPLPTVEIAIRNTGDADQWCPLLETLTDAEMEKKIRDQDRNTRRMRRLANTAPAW

Binding data for 1 substance are collected here from article PMC2894861.

No constants are given. Whether binding was seen depends on the method and setting. In cells and extracts the contact can be indirect. A yes stands for co-enrichment or nearness to the bait. Other partners may have been found.

Turning to “hSNF5, endogenous in MCF-7 cells (from UniProt Q12824 1-385)”, the binding result was “binds”.
